Literature values in patent publication US20130281399A1, “TREATMENT OF DISEASES BY EPIGENETIC REGULATION” (RVX Therapeutics Inc., priority 2012, published 2013).

Conditions: Nicodeme et al. (2010); cited from earlier work

CCNC(=O)C[C@@H]1N=C(c2ccc(Cl)cc2)c2cc(OC)ccc2-n2c(C)nnc21 [I-BET]
protection against lipopolysaccharide-induced endotoxic shock and bacteria-induced sepsis: confer protection
